Data on 37 compounds can be found in the supplement of paper PMC9135407.

For this test, the system named is primary human hepatic stellate cells (donor 1). The test is described as follows: percent Bodipy-positive cells; higher = more lipid droplet accumulation. Particulars: 48 h.
Where [1] appears, read: library stock concentration: 3.33 mM.
Setting [2] is: library stock concentration: 400 uM.
Setting [3] is: library stock concentration: 10 mM.
Setting [4] is: library stock concentration: 1 mM.
Where [5] appears, read: library stock concentration: 2 mM.

Each structure is given as a SMILES string. Values joined by “and” are separate entries in the source; they are usually repeats but may differ in a detail not shown here. Identical values can stand only once. Counter-ions that a name gives are not always drawn. ± gives the standard deviation of the averaged measurements. This is one part of the list. Part of the spread comes from offsets between plates or batches.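 Culture-activated primary human stellate myofibroblasts, where regained lipid droplets signal inactivation. Value: share of Hoechst-counted cells above a per-plate Bodipy cutoff, in duplicate wells, with DMSO negative and nortriptyline positive controls on each plate. Hits: a control-normalized score above the plate's top-tenth-percentile nortriptyline wells, or one of a plate's three best wells. Final well concentrations are not given.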

As to `CC(C)(C)c1cc(NC(=O)Nc2ccc(-c3cn4c(n3)sc3cc(OCCN5CCOCC5)ccc34)cc2)no1` [Quizartinib (AC220)], the “percent Bodipy-positive cells” value under setting [1] was 29.7 ± 0.42%.

For the compound `CC(C)(C)c1cc(NC(=O)Nc2ccc(-c3cn4c(n3)sc3cc(OCCN5CCOCC5)ccc34)cc2)no1` [Quizartinib  (AC220) (0.4 mM)], the “percent Bodipy-positive cells” value under setting [2] stood at 25.7 ± 5.7%.

Take `C=C/C(C)=C/[C@@]1(C)SC(=O)C(C)=C1O` [Thiolactomycin]: the “percent Bodipy-positive cells” value under setting [3] was found to be 21.2 ± 4.4%.

Regarding `Cc1nc(-c2ccc(C(F)(F)F)cc2)sc1C(=O)NCc1ccc(OC(C)(C)C(=O)O)cc1`, the “percent Bodipy-positive cells” value under setting [4] was 22.9 ± 17%.

As for `O=C(CCc1ccncc1)NNC(=O)N1Cc2ccccc2Oc2ccc(Cl)cc21`, the “percent Bodipy-positive cells” value under setting [3] was found to be 39.9 ± 10%.

On to `CCOC(=O)Nc1nc2ccccc2[nH]1` [Lobendazole], for which, for the setting “library stock concentration: 9.7 mM”, the “percent Bodipy-positive cells” value came out at 9.8 ± 2.9%.

On to `O=c1c(O)c(-c2ccc(O)cc2)oc2cc(O)cc(O)c12` [Kaempferol], for which the “percent Bodipy-positive cells” value was found to be 12.2 ± 0.36%. Besides, the “percent Bodipy-positive cells” value under setting [1] was 16.6 ± 2.7%. For the same compound, under setting [3], the “percent Bodipy-positive cells” value is 26.9% and 13.4%.

`COc1cc2nc(N3CCN(C(=O)C4COc5ccccc5O4)CC3)nc(N)c2cc1OC` (stereo unspecified) [Doxazosin mesylate]: the “percent Bodipy-positive cells” value came out at 21.5 ± 1.8%. The “percent Bodipy-positive cells” value (library stock concentration: 4.4 mM) was 18.6 ± 0.46%. For the same compound, the “percent Bodipy-positive cells” value under setting [3] came to 97.3 ± 1.1%.

As for `COc1cc2nc(N3CCN(C(=O)C4COc5ccccc5O4)CC3)nc(N)c2cc1OC` (stereo unspecified) [Doxazosin Mesylate], the “percent Bodipy-positive cells” value was determined as 24.1 ± 10% under setting [1] and 95.4 ± 1.9% under setting [3].

Take `COc1cc2nc(N3CCN(C(=O)C4COc5ccccc5O4)CC3)nc(N)c2cc1OC` (stereo unspecified) [Doxazosin]: the “percent Bodipy-positive cells” value under setting [3] came out at 79.2 ± 5.9%.

As for `CC(=O)Nc1ccc(OC(=O)c2ccccc2O)cc1` [Acetaminosalol], the “percent Bodipy-positive cells” value under setting [3] is 17.2 ± 3.5%.

Take `N#C/C(=C(/N)Sc1ccc(N)cc1)c1ccccc1C(F)(F)F`: the “percent Bodipy-positive cells” value is, setting by setting: under setting [1], 8.09 ± 4%; under setting [3], 17.4% and 5.29%.

`CC(C)(CCCCCCCCCCC(C)(C)CC(=O)O)CC(=O)O`: the “percent Bodipy-positive cells” value under setting [4] is 6.98 ± 0.85%.

Take `COc1cc(OC)c2ccc(=O)oc2c1` [Citropten]: the “percent Bodipy-positive cells” value under setting [3] was found to be 31.6 ± 15%.

Regarding `CCCc1ccc(OCC(=O)N(Cc2nc(-c3cccnc3)no2)C(C)C)cc1`, the “percent Bodipy-positive cells” value under setting [1] is 26.3 ± 3.3% and the “percent Bodipy-positive cells” value under setting [3] worked out at 57.7 ± 3%.

For `COc1cc(OC)c(NC(=O)Nc2cc(C)on2)cc1Cl`, the “percent Bodipy-positive cells” value is, setting by setting: under setting [1], 24.2 ± 8.9%; under setting [3], 22.3% and 34.9%.

Turning to `C[C@H]1O[C@@H](O[C@H]2[C@@H](O)C[C@H](O[C@H]3[C@@H](O)C[C@H](O[C@H]4CC[C@]5(C)C6CC[C@]7(C)[C@@H](C8=CC(=O)OC8)CC[C@]7(O)C6CC[C@@H]5C4)O[C@@H]3C)O[C@@H]2C)C[C@H](O)[C@@H]1O` (stereo partly specified) [Digitoxin], the “percent Bodipy-positive cells” value (library stock concentration: 2.6 mM) worked out at 71.1 ± 6.5%.

Take `CC(C)NCCCn1c(Sc2cc3c(cc2I)OCO3)nc2c(N)ncnc21`: the “percent Bodipy-positive cells” value under setting [3] is 94.2 ± 1.1%.

As for `O=C(CCBr)N1CCN(C(=O)CCBr)CC1` [Pipobroman], the “percent Bodipy-positive cells” value under setting [3] amounted to 39.2 ± 8%.

As to `CNC(=O)c1ccc(N2C(=S)N(c3ccc(C#N)c(C(F)(F)F)c3)C(=O)C2(C)C)cc1F` [Enzalutamide], the “percent Bodipy-positive cells” value is 9.06 ± 3.1% (library stock concentration: 80 uM), 10.6 ± 5.3% under setting [2], 11 ± 9.4% under setting [5] and 4.77 ± 1.3% under setting [3].

Consider `CNC(=O)c1ccc(N2C(=S)N(c3ccc(C#N)c(C(F)(F)F)c3)C(=O)C2(C)C)cc1F` [Enzalutamide (MDV3100)], for which the “percent Bodipy-positive cells” value amounted to 11.3 ± 1.2% under setting [1] and 16.9 ± 1.9% under setting [3].

In the case of `N[C@H]1CONC1=O` [(S)-(-)-Cycloserine], the “percent Bodipy-positive cells” value worked out at 9.48 ± 5.9%.

For `N[C@H]1CONC1=O`, the “percent Bodipy-positive cells” value under setting [3] is 36 ± 7.7%.

Turning to `N[C@H]1CONC1=O` [L-Cycloserine], the “percent Bodipy-positive cells” value under setting [3] was determined as 31 ± 5.7%.

Turning to `CCCCC1C(=O)N(c2ccccc2)N(c2ccc(O)cc2)C1=O` (stereo unspecified) [Oxyphenbutazone], the “percent Bodipy-positive cells” value worked out at 35.7 ± 1.7%. For the same compound, for the setting “library stock concentration: 6.2 mM”, the “percent Bodipy-positive cells” value turned out to be 89.8 ± 3%. The “percent Bodipy-positive cells” value under setting [3] amounted to 13.2 ± 1.1%.

In the case of `CC#CCn1c(N2CCC[C@@H](N)C2)nc2c1c(=O)n(Cc1nc(C)c3ccccc3n1)c(=O)n2C` [Linagliptin], the “percent Bodipy-positive cells” value came to 7.61 ± 0.61% under setting [1] and 25.3 ± 5.9% under setting [3].

`COc1ccc2c3n(c(=NC(=O)c4cccnc4)nc2c1OC)CCN3`: the “percent Bodipy-positive cells” value was 13.6 ± 5.6% under setting [2], 21 ± 4.8% under setting [5] and 26.1 ± 13% under setting [3].

Take `CCN(CC)CCOCCOC(=O)C1(c2ccccc2)CCCC1` [Pentoxyverine Citrate]: the “percent Bodipy-positive cells” value is, setting by setting: under setting [1], 17.7 ± 2.3%; under setting [3], 71.8 ± 15%.

In the case of `CCN(CC)CCOCCOC(=O)C1(c2ccccc2)CCCC1` [Carbetapentane citrate], the “percent Bodipy-positive cells” value was 63.4 ± 1%.

Turning to `CC/C=C/C[C@H](O)/C=C/[C@H]1[C@H](O)CC(=O)[C@@H]1C/C=C\CCCC(=O)O` [17-trans Prostaglandin E3], under setting [4], the “percent Bodipy-positive cells” value is 24.1 ± 5.9%.

As to `C[C@@H]1C[C@H]2[C@@H]3CCC4=CC(=O)C=C[C@]4(C)[C@@]3(F)[C@@H](O)C[C@]2(C)[C@H]1C(=O)CO`, the “percent Bodipy-positive cells” value under setting [3] worked out at 11.5 ± 8.5%.

Turning to `O=c1cc(-c2ccccc2F)[nH]c2cc3c(cc12)OCO3` [CHM-1 hydrate], under setting [3], the “percent Bodipy-positive cells” value stood at 85.5 ± 3.3%.

In the case of `O=c1[nH]ccc2c(O)cccc12` [1,5-Isoquinolinediol], the “percent Bodipy-positive cells” value under setting [3] worked out at 30.8 ± 8.5%.

As to `CC(C)(CO)[C@@H](O)C(=O)NCCC(=O)O` [D-Pantothenic acid], the “percent Bodipy-positive cells” value is 4.99 ± 1.2% under setting [1] and 10.3 ± 0.33% under setting [3].

With `CC(C)(CO)[C@@H](O)C(=O)NCCC(=O)O` [Pantothenic acid calcium salt monohydrate], the “percent Bodipy-positive cells” value is 36 ± 4.4%.

Regarding `CC(C)(CO)[C@@H](O)C(=O)NCCC(=O)O` [Pantothenic acid(d) na salt], where the note is “library stock concentration: 8.3 mM”, the “percent Bodipy-positive cells” value was determined as 5.899 ± 0.023%.

On to `CC(C)(CO)[C@@H](O)C(=O)NCCC(=O)O` [Pantothenic acid], for which the “percent Bodipy-positive cells” value (library stock concentration: 9.1 mM) was 2.81 ± 1.6%.
